Measurements from publication PMC10130768.
Results are given in words; binding and its absence hold for the method and conditions named. Binding seen in cells or lysates may run through a third protein. Some entries that bind do so weakly or less than the wild type.

Amino acid sequences for entries named in this document (tags omitted).
UniProt Q9UIF9: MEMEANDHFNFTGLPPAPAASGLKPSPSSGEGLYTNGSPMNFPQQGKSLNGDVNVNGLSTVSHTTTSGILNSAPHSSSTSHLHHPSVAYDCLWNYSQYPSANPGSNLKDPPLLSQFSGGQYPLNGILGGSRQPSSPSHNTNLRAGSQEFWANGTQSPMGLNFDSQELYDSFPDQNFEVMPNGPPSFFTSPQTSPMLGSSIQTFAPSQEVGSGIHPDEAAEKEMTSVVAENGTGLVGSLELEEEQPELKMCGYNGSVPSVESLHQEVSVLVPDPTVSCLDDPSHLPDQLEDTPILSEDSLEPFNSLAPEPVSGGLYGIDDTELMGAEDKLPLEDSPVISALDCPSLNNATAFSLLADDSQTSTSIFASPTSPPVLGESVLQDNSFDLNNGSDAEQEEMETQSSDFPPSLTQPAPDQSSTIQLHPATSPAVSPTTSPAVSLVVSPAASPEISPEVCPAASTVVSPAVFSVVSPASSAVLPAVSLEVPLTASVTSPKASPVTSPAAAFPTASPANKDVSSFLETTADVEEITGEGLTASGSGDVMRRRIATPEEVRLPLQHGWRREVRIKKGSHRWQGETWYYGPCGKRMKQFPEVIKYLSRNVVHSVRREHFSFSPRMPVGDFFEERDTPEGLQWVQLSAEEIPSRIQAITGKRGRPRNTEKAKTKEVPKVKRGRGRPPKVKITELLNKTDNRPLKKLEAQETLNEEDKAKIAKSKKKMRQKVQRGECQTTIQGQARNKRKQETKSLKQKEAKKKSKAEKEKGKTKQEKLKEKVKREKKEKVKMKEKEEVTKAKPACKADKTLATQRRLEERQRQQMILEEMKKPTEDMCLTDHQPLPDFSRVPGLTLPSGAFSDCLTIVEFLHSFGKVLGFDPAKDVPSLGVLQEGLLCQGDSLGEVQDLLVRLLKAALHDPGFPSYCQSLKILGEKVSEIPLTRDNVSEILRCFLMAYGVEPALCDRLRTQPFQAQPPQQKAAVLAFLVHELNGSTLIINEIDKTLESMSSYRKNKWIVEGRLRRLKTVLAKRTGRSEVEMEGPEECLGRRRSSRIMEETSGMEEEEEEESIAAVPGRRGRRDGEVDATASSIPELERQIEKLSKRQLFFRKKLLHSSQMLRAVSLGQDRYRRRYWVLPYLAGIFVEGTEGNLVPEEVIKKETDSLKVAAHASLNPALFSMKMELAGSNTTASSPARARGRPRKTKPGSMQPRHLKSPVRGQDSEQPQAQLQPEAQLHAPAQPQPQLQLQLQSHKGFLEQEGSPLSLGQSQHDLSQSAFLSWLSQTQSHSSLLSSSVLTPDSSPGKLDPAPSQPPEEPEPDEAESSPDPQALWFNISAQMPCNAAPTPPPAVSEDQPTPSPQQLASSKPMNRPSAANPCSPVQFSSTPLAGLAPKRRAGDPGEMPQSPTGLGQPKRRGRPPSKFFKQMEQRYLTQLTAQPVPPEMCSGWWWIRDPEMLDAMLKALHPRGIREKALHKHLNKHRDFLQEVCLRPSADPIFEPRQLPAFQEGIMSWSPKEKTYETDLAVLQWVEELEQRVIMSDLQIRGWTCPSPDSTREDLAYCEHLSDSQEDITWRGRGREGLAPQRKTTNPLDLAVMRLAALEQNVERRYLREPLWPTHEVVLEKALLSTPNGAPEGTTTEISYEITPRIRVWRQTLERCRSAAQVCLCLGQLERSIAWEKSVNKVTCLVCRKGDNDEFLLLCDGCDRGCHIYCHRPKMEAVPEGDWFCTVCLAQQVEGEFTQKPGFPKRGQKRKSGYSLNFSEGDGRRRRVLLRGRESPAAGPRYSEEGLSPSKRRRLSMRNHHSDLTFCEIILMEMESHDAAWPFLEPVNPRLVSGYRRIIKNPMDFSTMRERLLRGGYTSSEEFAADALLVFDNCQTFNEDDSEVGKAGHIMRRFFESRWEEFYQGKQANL

Legend:
[1] = molecular target: endogenous BAZ2A tagged with HA and FLAG sequences (human (endogenous in PC3)) (UniProt Q9UIF9); experiment: co-IP; as a3, but the nuclear extract treated with 100 μg/ml RNase A during the overnight IP at 4°C; Western blot
[2] = molecular target: endogenous BAZ2A tagged with HA and FLAG sequences (human (endogenous in PC3)) (UniProt Q9UIF9); experiment: co-IP; anti-HA magnetic beads IP from MNase-digested nuclear extract of the PC3 line with endogenous F/H-tagged BAZ2A, parental PC3 cells as control; without RNase A; Western blot

binding [1]	binding [2]	Binder
binds	binds	NUP107 (protein, UniProt P57740 1-925) MDRSGFGEISSPVIREAEVTRTARKQSAQKRVLLQASQDENFGNTTPRNQVIPRTPSSFRQPFTPTSRSLLRQPDISCILGTGGKSPRLTQSSGFFGNLSMVTNLDDSNWAAAFSSQRSGLFTNTEPHSITEDVTISAVMLREDDPGEAASMSMFSDFLQSFLKHSSSTVFDLVEEYENICGSQVNILSKIVSRATPGLQKFSKTASMLWLLQQEMVTWRLLASLYRDRIQSALEEESVFAVTAVNASEKTVVEALFQRDSLVRQSQLVVDWLESIAKDEIGEFSDNIEFYAKSVYWENTLHTLKQRQLTSYVGSVRPLVTELDPDAPIRQKMPLDDLDREDEVRLLKYLFTLIRAGMTEEAQRLCKRCGQAWRAATLEGWKLYHDPNVNGGTELEPVEGNPYRRIWKISCWRMAEDELFNRYERAIYAALSGNLKQLLPVCDTWEDTVWAYFRVMVDSLVEQEIQTSVATLDETEELPREYLGANWTLEKVFEELQATDKKRVLEENQEHYHIVQKFLILGDIDGLMDEFSKWLSKSRNNLPGHLLRFMTHLILFFRTLGLQTKEEVSIEVLKTYIQLLIREKHTNLIAFYTCHLPQDLAVAQYALFLESVTEFEQRHHCLELAKEADLDVATITKTVVENIRKKDNGEFSHHDLAPALDTGTTEEDRLKIDVIDWLVFDPAQRAEALKQGNAIMRKFLASKKHEAAKEVFVKIPQDSIAEIYNQCEEQGMESPLPAEDDNAIREHLCIRAYLEAHETFNEWFKHMNSVPQKPALIPQPTFTEKVAHEHKEKKYEMDFGIWKGHLDALTADVKEKMYNVLLFVDGGWMVDVREDAKEDHERTHQMVLLRKLCLPMLCFLLHTILHSTGQYQECLQLADMVSSERHKLYLVFSKEELRKLLQKLRESSLMLLDQGLDPLGYEIQL
binds	binds	SMC1A (protein, UniProt Q14683 1-1233) MGFLKLIEIENFKSYKGRQIIGPFQRFTAIIGPNGSGKSNLMDAISFVLGEKTSNLRVKTLRDLIHGAPVGKPAANRAFVSMVYSEEGAEDRTFARVIVGGSSEYKINNKVVQLHEYSEELEKLGILIKARNFLVFQGAVESIAMKNPKERTALFEEISRSGELAQEYDKRKKEMVKAEEDTQFNYHRKKNIAAERKEAKQEKEEADRYQRLKDEVVRAQVQLQLFKLYHNEVEIEKLNKELASKNKEIEKDKKRMDKVEDELKEKKKELGKMMREQQQIEKEIKEKDSELNQKRPQYIKAKENTSHKIKKLEAAKKSLQNAQKHYKKRKGDMDELEKEMLSVEKARQEFEERMEEESQSQGRDLTLEENQVKKYHRLKEEASKRAATLAQELEKFNRDQKADQDRLDLEERKKVETEAKIKQKLREIEENQKRIEKLEEYITTSKQSLEEQKKLEGELTEEVEMAKRRIDEINKELNQVMEQLGDARIDRQESSRQQRKAEIMESIKRLYPGSVYGRLIDLCQPTQKKYQIAVTKVLGKNMDAIIVDSEKTGRDCIQYIKEQRGEPETFLPLDYLEVKPTDEKLRELKGAKLVIDVIRYEPPHIKKALQYACGNALVCDNVEDARRIAFGGHQRHKTVALDGTLFQKSGVISGGASDLKAKARRWDEKAVDKLKEKKERLTEELKEQMKAKRKEAELRQVQSQAHGLQMRLKYSQSDLEQTKTRHLALNLQEKSKLESELANFGPRINDIKRIIQSREREMKDLKEKMNQVEDEVFEEFCREIGVRNIREFEEEKVKRQNEIAKKRLEFENQKTRLGIQLDFEKNQLKEDQDKVHMWEQTVKKDENEIEKLKKEEQRHMKIIDETMAQLQDLKNQHLAKKSEVNDKNHEMEEIRKKLGGANKEMTHLQKEVTAIETKLEQKRSDRHNLLQACKMQDIKLPLSKGTMDDISQEEGSSQGEDSVSGSQRISSIYAREALIEIDYGDLCEDLKDAQAEEEIKQEMNTLQQKLNEQQSVLQRIAAPNMKAMEKLESVRDKFQETSDEFEAARKRAKKAKQAFEQIKKERFDRFNACFESVATNIDEIYKALSRNSSAQAFLGPENPEEPYLDGINYNCVAPGKRFRPMDNLSGGEKTVAALALLFAIHSYKPAPFFVLDEIDAALDNTNIGKVANYIKEQSTCNFQAIVISLKEEFYTKAESLIGVYPEQGDCVISKVLTFDLTKYPDANPNPNEQ
binds	binds	RAD21 (protein, UniProt O60216 1-631) MFYAHFVLSKRGPLAKIWLAAHWDKKLTKAHVFECNLESSVESIISPKVKMALRTSGHLLLGVVRIYHRKAKYLLADCNEAFIKIKMAFRPGVVDLPEENREAAYNAITLPEEFHDFDQPLPDLDDIDVAQQFSLNQSRVEEITMREEVGNISILQENDFGDFGMDDREIMREGSAFEDDDMLVSTTTSNLLLESEQSTSNLNEKINHLEYEDQYKDDNFGEGNDGGILDDKLISNNDGGIFDDPPALSEAGVMLPEQPAHDDMDEDDNVSMGGPDSPDSVDPVEPMPTMTDQTTLVPNEEEAFALEPIDITVKETKAKRKRKLIVDSVKELDSKTIRAQLSDYSDIVTTLDLAPPTKKLMMWKETGGVEKLFSLPAQPLWNNRLLKLFTRCLTPLVPEDLRKRRKGGEADNLDEFLKEFENPEVPREDQQQQHQQRDVIDEPIIEEPSRLQESVMEASRTNIDESAMPPPPPQGVKRKAGQIDPEPVMPPQQVEQMEIPPVELPPEEPPNICQLIPELELLPEKEKEKEKEKEDDEEEEDEDASGGDQDQEERRWNKRTQQMLHGLQRALAKTGAESISLLELCRNTNRKQAAAKFYSFLVLKKQQAIELTQEEPYSDIIATPGPRFHII
